# This is one part of the list.
# Columns and labels:
# Test in all cases: glycan array binding signal (z-score within array); higher = stronger binding
# Settings in all cases: glycan notation: IUPAC condensed, linker removed
# [1] = molecular target: Gal(b1-4)GlcNAc(b1-3)Gal(b1-4)GlcNAc(b1-6)[Gal(b1-3)]GalNAc
# How it was run: (§1)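 Glycan array binding is given as a within-array Z-score, which can be read as non-binding when negative. The arrays, 3228 of them, came from the Consortium for Functional Glycomics database and were retained only where the protein sequence was available. Z-scores were averaged across arrays of the same protein sequence at different concentrations or buffers and across linkers.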
# [2] = molecular target: Gal(b1-4)GlcNAc(b1-3)Gal(b1-4)[Fuc(a1-3)]GlcNAc(b1-3)Gal(b1-4)[Fuc(a1-3)]GlcNAc
# How it was run: as §1
# [3] = molecular target: Gal(b1-4)GlcNAc(b1-3)GalNAc
# How it was run: as §1
# [4] = molecular target: Gal(b1-4)GlcNAc(b1-3)[Fuc(a1-3)GlcNAc(b1-6)]Gal(b1-4)Glc
# How it was run: as §1
# [5] = molecular target: Gal(b1-4)GlcNAc(b1-3)[Gal(b1-4)GlcNAc(b1-6)]Gal(b1-4)GlcNAc
# How it was run: as §1
# [6] = molecular target: Gal(b1-4)GlcNAc(b1-3)[GlcNAc(b1-6)]Gal(b1-4)GlcNAc
# How it was run: as §1
# [7] = molecular target: Gal(b1-4)GlcNAc(b1-6)Gal(b1-4)GlcNAc
# How it was run: as §1
# [8] = molecular target: Gal(b1-4)GlcNAc(b1-6)GalNAc
# How it was run: as §1
# [9] = molecular target: Gal(b1-4)GlcNAc(b1-6)[Gal(b1-3)]GalNAc
# How it was run: as §1
# [10] = molecular target: Gal(b1-4)GlcNAc(b1-6)[Gal(b1-4)GlcNAc(b1-3)]GalNAc
# How it was run: as §1
# Gal(b1-4)GlcNAc6P = molecular target: Gal(b1-4)GlcNAc6P
# How it was run: as §1
# Gal(b1-6)Gal = molecular target: Gal(b1-6)Gal
# How it was run: as §1
# Gal3S(b1-3)GalNAc = molecular target: Gal3S(b1-3)GalNAc
# How it was run: as §1
# Gal3S(b1-3)GlcNAc = molecular target: Gal3S(b1-3)GlcNAc
# How it was run: as §1
# [11] = molecular target: Gal3S(b1-3)[Fuc(a1-4)]GlcNAc
# How it was run: as §1
# Gal3S(b1-4)Glc = molecular target: Gal3S(b1-4)Glc
# How it was run: as §1
# Gal3S(b1-4)Glc6S = molecular target: Gal3S(b1-4)Glc6S
# How it was run: as §1
# Gal3S(b1-4)GlcNAc = molecular target: Gal3S(b1-4)GlcNAc
# How it was run: as §1
# [12] = molecular target: Gal3S(b1-4)[Fuc(a1-3)]Glc6S
# How it was run: as §1
# [13] = molecular target: Gal3S(b1-4)[Fuc(a1-3)]GlcNAc
# How it was run: as §1
# [14] = molecular target: Gal3S(b1-4)[Fuc(a1-3)]GlcNAc6S
# How it was run: as §1
# Gal3S4S(b1-4)GlcNAc = molecular target: Gal3S4S(b1-4)GlcNAc
# How it was run: as §1
# Gal3S6S(b1-4)GlcNAc = molecular target: Gal3S6S(b1-4)GlcNAc
# How it was run: as §1
# Gal3S6S(b1-4)GlcNAc6S = molecular target: Gal3S6S(b1-4)GlcNAc6S
# How it was run: as §1
# Gal4S(b1-4)GlcNAc = molecular target: Gal4S(b1-4)GlcNAc
# How it was run: as §1
# Gal4S6S(b1-4)GlcNAc = molecular target: Gal4S6S(b1-4)GlcNAc
# How it was run: as §1
# Gal6P(b1-4)GlcNAc = molecular target: Gal6P(b1-4)GlcNAc
# How it was run: as §1
# Gal6S(b1-3)GlcNAc = molecular target: Gal6S(b1-3)GlcNAc
# How it was run: as §1
# Gal6S(b1-3)GlcNAc6S = molecular target: Gal6S(b1-3)GlcNAc6S
# How it was run: as §1
# Gal6S(b1-4)Glc = molecular target: Gal6S(b1-4)Glc
# How it was run: as §1
# Gal6S(b1-4)Glc6S = molecular target: Gal6S(b1-4)Glc6S
# How it was run: as §1
# Gal6S(b1-4)GlcNAc = molecular target: Gal6S(b1-4)GlcNAc
# How it was run: as §1
# Gal6S(b1-4)GlcNAc6S = molecular target: Gal6S(b1-4)GlcNAc6S
# How it was run: as §1
# GalNAc(a1-3)Gal = molecular target: GalNAc(a1-3)Gal
# How it was run: as §1
# GalNAc(a1-3)GalNAc = molecular target: GalNAc(a1-3)GalNAc
# How it was run: as §1
# [15] = molecular target: GalNAc(a1-3)GalNAc(b1-3)Gal(a1-4)Gal(b1-4)Glc
# How it was run: as §1
# [16] = molecular target: GalNAc(a1-3)GalNAc(b1-3)Gal(a1-4)Gal(b1-4)GlcNAc
# How it was run: as §1
# GalNAc(b1-3)Gal = molecular target: GalNAc(b1-3)Gal
# How it was run: as §1
# [17] = molecular target: GalNAc(b1-3)Gal(a1-4)Gal(b1-4)GlcNAc
# How it was run: as §1
# [18] = molecular target: GalNAc(b1-3)Gal(a1-4)Gal(b1-4)GlcNAc(b1-3)Gal(b1-4)Glc
# How it was run: as §1
# [19] = molecular target: GalNAc(b1-3)Gal(a1-6)Gal(b1-4)Glc
# How it was run: as §1
# GalNAc(b1-3)GalNAc = molecular target: GalNAc(b1-3)GalNAc
# How it was run: as §1
# GalNAc(b1-3)GlcNAc = molecular target: GalNAc(b1-3)GlcNAc
# How it was run: as §1
# GalNAc(b1-4)Gal(b1-4)Glc = molecular target: GalNAc(b1-4)Gal(b1-4)Glc
# How it was run: as §1
# GalNAc(b1-4)GlcNAc = molecular target: GalNAc(b1-4)GlcNAc
# How it was run: as §1
binder,measurement,setting,value
LlpB (Pseudomonas fluorescens) (protein) MGSSHHHHHHSSGLVPRGSHMASSGFRIILFNSANNGTAILPPRNCLVAGQYLESPSKRYKLILEADGNLRLYDNGVPIWVADSSVPYTYVDNRPNTNLVTCFYMQGSAFLVDRVGSRTWATIGDWIDGAADRAYLQVQDDGNVVVVDGVPRWARFGFTPAALPNRGVFYPDHGTGPLPSFPVWSWTF,glycan array binding signal (z-score),[1],-0.114
same,glycan array binding signal (z-score),[2],-0.988
same,glycan array binding signal (z-score),[3],-0.663
same,glycan array binding signal (z-score),[4],0.466
same,glycan array binding signal (z-score),[5],-1.01
same,glycan array binding signal (z-score),[6],-0.183
same,glycan array binding signal (z-score),[7],1.58
same,glycan array binding signal (z-score),[8],-0.075
same,glycan array binding signal (z-score),[9],0.018
same,glycan array binding signal (z-score),[10],-0.955
same,glycan array binding signal (z-score),Gal(b1-4)GlcNAc6P,0.332
same,glycan array binding signal (z-score),Gal(b1-6)Gal,-0.442
same,glycan array binding signal (z-score),Gal3S(b1-3)GalNAc,0.166
same,glycan array binding signal (z-score),Gal3S(b1-3)GlcNAc,0.098
same,glycan array binding signal (z-score),[11],0.272
same,glycan array binding signal (z-score),Gal3S(b1-4)Glc,0.751
same,glycan array binding signal (z-score),Gal3S(b1-4)Glc6S,0.262
same,glycan array binding signal (z-score),Gal3S(b1-4)GlcNAc,1.46
same,glycan array binding signal (z-score),[12],-0.617
same,glycan array binding signal (z-score),[13],-1.03
same,glycan array binding signal (z-score),[14],-0.616
same,glycan array binding signal (z-score),Gal3S4S(b1-4)GlcNAc,-0.851
same,glycan array binding signal (z-score),Gal3S6S(b1-4)GlcNAc,-0.361
same,glycan array binding signal (z-score),Gal3S6S(b1-4)GlcNAc6S,-0.319
same,glycan array binding signal (z-score),Gal4S(b1-4)GlcNAc,-0.386
same,glycan array binding signal (z-score),Gal4S6S(b1-4)GlcNAc,0.612
same,glycan array binding signal (z-score),Gal6P(b1-4)GlcNAc,-0.315
same,glycan array binding signal (z-score),Gal6S(b1-3)GlcNAc,-0.975
same,glycan array binding signal (z-score),Gal6S(b1-3)GlcNAc6S,-1.7
same,glycan array binding signal (z-score),Gal6S(b1-4)Glc,-1.15
same,glycan array binding signal (z-score),Gal6S(b1-4)Glc6S,-0.418
same,glycan array binding signal (z-score),Gal6S(b1-4)GlcNAc,-0.499
same,glycan array binding signal (z-score),Gal6S(b1-4)GlcNAc6S,-0.293
same,glycan array binding signal (z-score),GalNAc(a1-3)Gal,-0.628
same,glycan array binding signal (z-score),GalNAc(a1-3)GalNAc,-1.05
same,glycan array binding signal (z-score),[15],0.945
same,glycan array binding signal (z-score),[16],0.124
same,glycan array binding signal (z-score),GalNAc(b1-3)Gal,-1.09
same,glycan array binding signal (z-score),[17],-0.832
same,glycan array binding signal (z-score),[18],0.041
same,glycan array binding signal (z-score),[19],0.079
same,glycan array binding signal (z-score),GalNAc(b1-3)GalNAc,-0.537
same,glycan array binding signal (z-score),GalNAc(b1-3)GlcNAc,-0.516
same,glycan array binding signal (z-score),GalNAc(b1-4)Gal(b1-4)Glc,-0.149
same,glycan array binding signal (z-score),GalNAc(b1-4)GlcNAc,0.773

# — the supplement of paper PMC8728848
